In this test the target is Flag-OPN (Osteopontin) (UniProt P10451). Kind of test: affinity purification with mass spectrometry; CCLP1 cells transfected with Flag-OPN or empty vector; immunoprecipitation by anti-Flag mAb; silver staining and MS of coprecipitated proteins.

The chains behind the UniProt entries cited, without tags or fusion partners. Residues count along the entry.
UniProt P10451, residues 17-314: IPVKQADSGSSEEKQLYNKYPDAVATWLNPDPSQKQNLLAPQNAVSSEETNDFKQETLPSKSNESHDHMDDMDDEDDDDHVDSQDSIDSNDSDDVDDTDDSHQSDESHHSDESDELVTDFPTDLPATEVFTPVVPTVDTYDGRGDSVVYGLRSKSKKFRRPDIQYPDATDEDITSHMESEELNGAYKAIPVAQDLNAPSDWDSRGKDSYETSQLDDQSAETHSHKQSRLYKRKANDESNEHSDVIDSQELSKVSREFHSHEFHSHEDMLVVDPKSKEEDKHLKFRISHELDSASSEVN
UniProt P35222: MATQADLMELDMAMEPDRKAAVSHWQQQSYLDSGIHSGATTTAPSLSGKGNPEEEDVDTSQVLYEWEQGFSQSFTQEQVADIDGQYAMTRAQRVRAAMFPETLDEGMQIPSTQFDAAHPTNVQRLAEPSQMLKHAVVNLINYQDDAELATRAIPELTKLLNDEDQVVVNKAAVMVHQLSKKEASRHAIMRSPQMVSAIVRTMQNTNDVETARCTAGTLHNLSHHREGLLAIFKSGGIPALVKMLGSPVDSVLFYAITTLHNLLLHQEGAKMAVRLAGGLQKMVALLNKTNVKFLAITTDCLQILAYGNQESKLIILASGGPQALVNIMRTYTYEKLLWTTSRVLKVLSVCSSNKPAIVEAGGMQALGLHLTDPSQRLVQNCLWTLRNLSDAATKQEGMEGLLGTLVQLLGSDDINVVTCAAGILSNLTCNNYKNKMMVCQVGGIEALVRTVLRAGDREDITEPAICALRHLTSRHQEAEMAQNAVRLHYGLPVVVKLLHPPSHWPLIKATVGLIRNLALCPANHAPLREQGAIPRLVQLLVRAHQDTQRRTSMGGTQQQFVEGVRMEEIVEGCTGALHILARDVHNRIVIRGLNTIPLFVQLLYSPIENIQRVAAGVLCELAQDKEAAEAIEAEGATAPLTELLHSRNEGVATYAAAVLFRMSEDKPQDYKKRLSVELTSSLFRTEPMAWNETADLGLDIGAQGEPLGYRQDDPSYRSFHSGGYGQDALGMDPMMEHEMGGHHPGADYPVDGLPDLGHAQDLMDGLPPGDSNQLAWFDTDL

The results in this text go back to article PMC5833342.

These are yes or no findings as the source states them, for the method shown. In cells and extracts the contact can be indirect. A yes stands for co-enrichment or nearness to the bait. Other partners may have been found.

Turning to “β-Catenin, endogenous (from UniProt P35222 1-781)”, the binding entry is on record as “binds”.
